Drawing on patent publication US20140314784A1, this text covers binding for 1 molecule.

No constants are given. Whether binding was seen depends on the method and setting. For some of these results: Binding calls can cover weak binding; strength is not graded here.

Among the targets are KO_N+2nd loop; KO_N+3rd loop; KO_2nd loop; KO_2nd+3rd loop.
Assay in all cases: flow cytometry, CHO cells transiently transfected with the construct, dot plot SSC-A against PE-A
A general note: A flow cytometer gives signals particle by particle.

B1: 6C7 (antibody, V domains shown)
VH: QVQLVESGGGVVQPGRSLRLSCAASGFTFSNYVMHWVRQAPGKGLEWVAVIWYDGSNKYYADSVKGRFTISRDNSKNTLSLQMNSLRAEDTAVYYCERGEGYYGSGSRYRGYYYGMDVWGQGTTVTVSS
VL: DIQMTQSPSSLSASVGDRVTITCRASQGIRTDLGWYQQKPGKAPKRLIYAASSLQSGVPSRFSGSGSGTEFTLTISSLQPEDFATYYCLQHNSYPRTFGQGTKVEIK
On to B1, for which the binding entry in the assay with KO_N+2nd loop is on record as “no binding (tested: 0.1 µg/ml)”; with KO_N+3rd loop, “binds”; with KO_2nd loop, “no binding (tested: 0.1 µg/ml)”; with KO_2nd+3rd loop, “no binding (tested: 0.1 µg/ml)”.
